Results: PMC12040169 (PLOS Biology, 2025)
This is one part of the list.

system: T1, CTL2-GFP (C. trachomatis L2/434/Bu, GFP-expressing); design: species or system HeLa; Intracellular C. trachomatis growth in HeLa cells, bulk GFP fluorescence relative to DMSO; conditions: bulk GFP, single well; 28.5 h, 10 µM; inhibitor
T1 construct: L2/434/Bu, GFP-expressing

SMILES | % of control remaining [%]
CSc1ncc(Cl)c(C(=O)Nc2sc3c(c2C(=O)NCc2ccccc2)CCCC3)n1 [CBK268976] | 92.8655
CC(NC(=O)C1C=CCN1S(C)(=O)=O)c1ccc2c(c1)CCC2 (stereo not shown) [CBK282667] | 115.24
O=C(NCc1ccccc1)c1ccccc1NC(=O)C1CCCCC1C(=O)O (stereo not shown) [CBK269283] | 122.574
CN(C)CCn1c(=O)[nH]c2ncc(-c3ccco3)nc21 [CBK064251] | 85.8256
COc1cccc(C(=O)N2CCN(C(=O)Nc3ccc(C(F)(F)F)cc3)CC2)c1 [CBK154788] | 110.266
CC(C)CCNC(=O)N(CCC#N)C1CCCCC1 [CBK156378] | 113.601
O=C1C(=CNCCN2CCOCC2)C(=O)c2ccccc21 [CBK263008] | 66.7935
O=C(COC(=O)c1cc(O)nc2ccccc12)c1ccc(Br)cc1 [CBK262125] | 109.19
CN(C)C(=O)c1cccc(S(=O)(=O)NCC2CCCO2)c1 (stereo not shown) [CBK304867] | 97.1501
CCOC(=O)c1sc(-c2ccccc2)nc1OCc1ccccc1Cl [CBK067727] | 99.128
CCc1nnc(SC(C)C(=O)N2CCCc3ccccc32)[nH]1 (stereo not shown) [CBK306009] | 108.033
C[C@]12CN(Cc3ccccc3)C[C@H]1NC(=O)c1ccccc1C2O (stereo partly shown) [CBK282302] | 85.8025
COc1nccc(N2CCCC(CO)(CC3CC3)C2)c1C#N (stereo not shown) [CBK307553] | 139.207
CC(C)(C)OC(=O)N1CCC(CNS(C)(=O)=O)CC1 [CBK003925] | 130.73
CS(=O)(=O)N[C@H]1CCN2C(=O)c3cc(-c4ccc(Cl)cc4)ccc3NC(=O)[C@@H]2C1 [CBK289565] | 118.279
Cc1cccc(C)c1NC(=O)Nc1cc(N2CCNCC2)c2occc2c1 [CBK061748C] | 103.089
Fc1ccc(-c2c[nH]nc2C2CCOCC2)cc1 [CBK283464] | 101.851
O=C1CCC[C@]2(CN(Cc3ccccc3)C[C@H]2c2ccncc2)N1 [CBK283348] | 134.159
O=C(CCC1COc2ccccc2O1)N1CCN(Cc2ccccc2)CC1 (stereo not shown) [CBK269767] | 94.3901
O=C(O)c1ccc(-n2ncc3ccccc3c2=O)cc1 [CBK288229] | 129.076
O=C(CCOc1ccccc1F)Nc1cnc(-c2ccc(F)cc2)c(-c2ccsc2)n1 [CBK036897] | 139.702
Cc1cc(=O)n(C)c(=O)n1CCCCCN1CCCC1 [CBK027386] | 144.834
O=C(/C=C/c1ccccc1)NC(NCc1cccnc1)C(Cl)(Cl)Cl (stereo not shown) [CBK261804] | 52.1366
COc1ccc([C@@]23CC[C@@H](NC(=O)Nc4ccc5c(c4)OC(F)(F)O5)C[C@@H]2N(C)CC3)cc1OC [CBK073743T] | 100.186
CCCc1c(Cc2c(Cl)cccc2Cl)c(=O)n(C)n1C [CBK115466] | 112.614
CSCC[C@@H]1NC(=O)N(c2ccc(CN3CCOCC3)cc2)C1=O [CBK287954] | 168.332
O=C(c1cncnc1)N1CCC(F)CC1 [CBK200384] | 94.151

SMILES | % of control remaining [%]
CC1CCCN(Cc2c(C3CCCNC3)[nH]c3ncccc23)C1 (stereo not shown) [CBK285112] | 145.158
CCN1CCN(c2ccc(NC(=O)c3cc(-n4cnnc4)ccc3Cl)cc2Cl)CC1 [CBK269343] | 174.432
O=C(CSc1ccc(F)cc1)Nc1cc(Cl)ccc1O [CBK268685] | 150.48
O=C(O)COc1ccc(N2C(=O)C(O)=C(C(=O)c3ccccc3)C2c2cccc(F)c2)cc1 (stereo not shown) [CBK287010] | 155.858
CN1CCC(N(C)C(=O)NCc2cccc3ccccc23)C1 (stereo not shown) [CBK155999] | 110.132
Cc1ccc2nc(-c3ccc(/N=C/c4cccc(O)c4O)cc3)sc2c1 [CBK261583] | 98.648
COc1cc(/C=N/NC(N)=O)ccc1OC(=O)c1sc2ccccc2c1Cl [CBK262265] | 98.4498
Cc1ccc(S(=O)(=O)NCC(=O)N2CCN(Cc3ccccc3)CC2)cc1 [CBK265991] | 132.201
Nc1nc2ccccc2cc1-c1cccs1 [CBK112549] | 76.7212
Cn1nc(-c2ccc(N3CCCCC3)c(NC(=O)COc3ccccc3)c2)c2ccccc2c1=O [CBK265780] | 162.213
CCCCCNC(=O)C1CCN(Cn2c(=O)oc3cc(Cl)ccc32)CC1 [CBK298290] | 119.254
CCCNC(=O)N1CCN2C(=O)c3cc(-c4ccccc4F)ccc3NC(=O)[C@@H]2C1 [CBK289595] | 113.88
CCC(=O)N1CCCc2cc(C(O)CN3CCN(c4ccc(F)cc4)CC3)ccc21 (stereo not shown) [CBK286480] | 16.7832
COc1ccc(Cc2nc(CC3CCCOC3)n(CC(F)(F)F)n2)cc1 (stereo not shown) [CBK307140] | 109.68
NS(=O)(=O)c1ccc(-c2nc(-c3ccccc3)no2)cc1 [CBK269957] | 121.296
COCOc1ccc(-c2nccnc2OCCc2cccs2)cc1 [CBK106911] | 124.529
COc1cccc2sc(NC(=O)c3c(F)cccc3F)nc12 [CBK149283] | 140.844
CCCn1cc(C(=O)NCc2ccc(Cl)cc2)c(=O)c2cc(CN3CCOCC3)sc21 [CBK018478] | 99.661
CN(C)S(=O)(=O)c1ccc(-c2nn(-c3ccccc3)cc2/C=C(\C#N)c2nc3ccccc3c(=O)[nH]2)cc1 [CBK266266] | 183.381
NCCCC(C(=O)O)C(=O)c1ccccc1-c1ccccc1 (stereo not shown) [CBK286941] | 101.411
CN(C)c1ccc(-c2nnc([C@H]3CCN(C(=O)c4ccccc4)C3)o2)cc1 [CBK289407] | 117.741
Cc1ccc(S(=O)(=O)/N=C(\Nc2nc3ccccc3o2)NS(=O)(=O)c2ccc(C)cc2)cc1 [CBK266728] | 90.8323
CCn1c2ccccc2c2cc(NC(=O)CN(C)S(=O)(=O)c3ccc(C)cc3)ccc21 [CBK266756] | 113.003
CCOC(=O)c1sc(-c2ccc(C(C)(C)C)cc2)nc1O [CBK078538] | 103.97
C#CCn1cc(CN2CCc3c(nc(C)[nH]c3=O)C2)c2ccccc21 [CBK282382] | 126.454
COc1ncc(-c2nccnc2N[C@H](C)c2ccccc2)c(OC)n1 [CBK036588] | 97.9504
Cn1cc(C2CCCCCN2C(=O)c2cccc(F)c2)cn1 (stereo not shown) [CBK284970] | 101.569

Five records picked at random from the list so far, as already listed:
SMILES | % of control remaining [%]
COc1ncc(-c2nccnc2N[C@H](C)c2ccccc2)c(OC)n1 [CBK036588] | 97.9504
NCCCC(C(=O)O)C(=O)c1ccccc1-c1ccccc1 (stereo not shown) [CBK286941] | 101.411
Cn1nc(-c2ccc(N3CCCCC3)c(NC(=O)COc3ccccc3)c2)c2ccccc2c1=O [CBK265780] | 162.213
CC1CCCN(Cc2c(C3CCCNC3)[nH]c3ncccc23)C1 (stereo not shown) [CBK285112] | 145.158
CN1CCC(N(C)C(=O)NCc2cccc3ccccc23)C1 (stereo not shown) [CBK155999] | 110.132

(listing goes on)

SMILES | % of control remaining [%]
Clc1cccc(CNc2nccnc2-c2ccoc2)c1 [CBK036616] | 104.762
O=C(CC1C(=O)N(c2ccccc2)C(=S)N1NC(=O)c1ccccn1)Nc1ccc(Cl)cc1 (stereo not shown) [CBK266711] | 77.7487
Oc1ccc(CN2CCN(Cc3ccc(Br)s3)CC2)c2cccnc12 [CBK295645] | 49.2598
CCn1c(=O)n(CC(=O)N2CC(C)CC(C)C2)c2cccnc21 (stereo not shown) [CBK283845] | 110.298
COc1ccc(Nc2ccc(-c3ccc4c(c3)OCO4)cn2)c(C)c1 [CBK036799] | 121.286
O=C1COc2ccccc2C/C=C/CC2(CCCN(C(=O)CN3CCCC3=O)C2)CN1 (stereo not shown) [CBK292032] | 165.018
Cc1nc2c(-c3cccs3)c(C)nn2c(O)c1C [CBK283728] | 97.5288
COC(=O)Nc1ccc(S(=O)(=O)N2CCCCC2C(=O)O)cc1 (stereo not shown) [CBK058086] | 103.689
COc1cccc(C(=O)N2CCC(Cc3ccccc3-c3ccccc3C)(C(N)=O)CC2)c1 [CBK285722] | 125.536
O=C(O)CN1C(=O)CC2(C1=O)C(=O)N(Cc1ccccc1)c1ccccc12 (stereo not shown) [CBK076093] | 77.8027
CCN(Cc1ccccc1)Cc1nc2ccccc2c(=O)[nH]1 [CBK283203] | 102.107
CCOc1ccccc1C(=O)N1CCC(Cc2ccc(-c3ccccc3)cc2)(C(N)=O)CC1 [CBK285775] | 125.44
S=C1NCCN1c1nnc(-c2cccs2)[nH]1 [CBK007096] | 96.5813
CN(C)CCO/N=C(\c1ccccc1)c1ccncc1 [CBK261095G] | 115.321
COCCCOc1nc2cc(Cl)c(Cl)cc2nc1N1CCCC1 [CBK115773] | 104.79
CCN(CC)CCN(C(=O)NCCCSC)C(C)c1ccc(OC)c(OC)c1 (stereo not shown) [CBK158803] | 120.383
Cn1c(=O)n(Cc2ccccn2)c(=O)c2cnc(-c3ccncc3)nc21 [CBK288592] | 116.503
O=C(Cc1c[nH]cn1)Nc1ccc2cc[nH]c2c1 [CBK160059] | 119.242
Nc1nc(=O)c2cnc3ccc(F)cc3c2s1 [CBK291195] | 96.4969
COc1ccc(Cl)cc1C(=O)Nc1cc(C)c2c(=O)oc3ccccc3c2n1 [CBK291196] | 83.0281
O=C(Nc1snnc1-c1ccc(Cl)cc1)c1cccc(C(F)(F)F)c1 [CBK153246] | 23.7651
CC1CC1C(=O)N1C2CCC1CC(O)(Cn1ccc3ccncc31)C2 (stereo not shown) [CBK284653] | 147.445
CC(C)Nc1nc(-c2cccnc2)cn2ccnc12 [CBK093608] | 122.329
C/C=C/c1ccc(OCCNC2CCCC2)c(OC)c1 [CBK266399G] | 185.019
Cc1cn2c(nc1=O)OC[C@H]1O[C@@H]2C[C@H]1O [CBK201280] | 204.005
